These are yes or no findings as the source states them, for the method shown. In cells and extracts the contact can be indirect. Some results given as binding are weak or reduced against the parent protein; the word gives no strength. Sequences can lack the tags named with a protein.
Key:
HA-RAB2a = HA-RAB2a (UniProt P53994); experiment: co-IP; co-expression in WT E14 mESCs for 48 hrs; IP with cross-linked anti-HA magnetic beads against mouse IgG control, over-night; WB with anti-FLAG and anti-HA
STMN1-HA (mouse) = target: T1, STMN1-HA (mouse) (UniProt P54227); experiment: as above
T1 sequence: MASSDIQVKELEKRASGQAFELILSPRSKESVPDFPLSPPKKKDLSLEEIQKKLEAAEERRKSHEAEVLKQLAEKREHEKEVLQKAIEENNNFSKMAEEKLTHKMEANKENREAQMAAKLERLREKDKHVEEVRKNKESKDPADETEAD

Sequences of proteins named here, by UniProt entry; tags and fusion partners are left off.
UniProt P53994: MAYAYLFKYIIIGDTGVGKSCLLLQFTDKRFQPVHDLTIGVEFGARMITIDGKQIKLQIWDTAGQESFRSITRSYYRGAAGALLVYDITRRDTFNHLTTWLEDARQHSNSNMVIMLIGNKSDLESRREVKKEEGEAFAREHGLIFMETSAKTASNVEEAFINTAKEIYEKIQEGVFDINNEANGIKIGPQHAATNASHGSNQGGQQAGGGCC

B1: METTL9-CatD-FLAG (enzyme, UniProt Q9EPL4 19-318)
chain: RRMWTLRSPLSRSLYVNMTSGPGGPAAAAGGGKDTHQWYVCNREKLCESLQSVFVQSYLDQGTQIFLNNSIEKSGWLFIQLYHSFVSSVFSLFMSRTSINGLLGRGSMFVFSPDQFQRLLRINPDWKTHRLLKLRAGDGEVTKIMSPHFEEIYATELSETMIWQLQKKKYRVLGINEWQNTGFQYDVISCLNLLDRCDQPLTLLKDIRSVLEPTQGRVILALVLPFHPYVENVGGKWEKPSEILEIKGQNWEEQVNSLPEVFRKAGFVVEAFTRLPYLCEGDMYNDYYVLDDAVFVLRPV
In the case of B1, the binding (HA-RAB2a) is reported as “binds” and the binding (STMN1-HA (mouse)) is reported as “binds”.
